Primary screen of a compound library

By UniProt entry, the sequences of proteins in these tests, tags left out. Residues count along the entry.
UniProt Q8IDJ8, 1-583: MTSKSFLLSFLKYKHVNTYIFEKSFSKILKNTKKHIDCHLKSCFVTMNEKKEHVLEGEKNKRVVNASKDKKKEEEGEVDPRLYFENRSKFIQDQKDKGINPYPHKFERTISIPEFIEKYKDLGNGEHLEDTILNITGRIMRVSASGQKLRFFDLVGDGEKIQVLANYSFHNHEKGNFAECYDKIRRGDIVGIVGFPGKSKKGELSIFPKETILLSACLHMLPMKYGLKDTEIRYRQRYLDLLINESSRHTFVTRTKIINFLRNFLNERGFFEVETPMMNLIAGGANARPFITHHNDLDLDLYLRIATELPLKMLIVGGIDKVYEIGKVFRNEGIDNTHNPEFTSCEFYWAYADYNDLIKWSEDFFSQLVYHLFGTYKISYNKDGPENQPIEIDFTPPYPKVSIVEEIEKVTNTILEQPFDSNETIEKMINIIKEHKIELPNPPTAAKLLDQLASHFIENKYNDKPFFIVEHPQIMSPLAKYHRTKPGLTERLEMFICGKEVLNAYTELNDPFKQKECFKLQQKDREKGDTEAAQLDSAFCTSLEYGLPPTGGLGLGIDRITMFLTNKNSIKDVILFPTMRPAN
UniProt P9WFT3, whole entry: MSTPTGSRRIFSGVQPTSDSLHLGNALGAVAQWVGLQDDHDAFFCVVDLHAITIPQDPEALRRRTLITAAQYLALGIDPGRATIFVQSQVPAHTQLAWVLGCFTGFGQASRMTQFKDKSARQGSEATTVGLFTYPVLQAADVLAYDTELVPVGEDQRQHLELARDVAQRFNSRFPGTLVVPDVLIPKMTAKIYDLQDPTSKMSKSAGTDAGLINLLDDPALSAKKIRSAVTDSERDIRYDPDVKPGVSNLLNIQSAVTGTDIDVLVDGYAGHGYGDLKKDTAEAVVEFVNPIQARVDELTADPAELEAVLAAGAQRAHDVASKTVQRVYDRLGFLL
UniProt P9WPC5, whole entry: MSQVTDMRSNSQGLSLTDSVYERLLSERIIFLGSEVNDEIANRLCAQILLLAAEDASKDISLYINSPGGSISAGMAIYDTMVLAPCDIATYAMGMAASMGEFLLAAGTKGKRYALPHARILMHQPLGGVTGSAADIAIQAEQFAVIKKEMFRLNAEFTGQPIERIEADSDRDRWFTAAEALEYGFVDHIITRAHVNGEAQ
UniProt P9WPC3, whole entry partner: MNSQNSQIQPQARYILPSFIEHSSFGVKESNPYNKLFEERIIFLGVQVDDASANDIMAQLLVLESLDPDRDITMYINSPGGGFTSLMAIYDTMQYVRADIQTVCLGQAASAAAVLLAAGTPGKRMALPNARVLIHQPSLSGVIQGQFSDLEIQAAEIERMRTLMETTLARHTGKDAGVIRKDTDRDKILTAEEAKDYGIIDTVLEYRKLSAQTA

Data taken from ChEMBL document CHEMBL3988442, “University of Dundee, Small-Polar-MMV Screening Library” (2021).

PfKRS1: 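Enzyme assay of the cytosolic lysyl-tRNA synthetase in 384-well plates, read by luminescence. Target: Lysine-tRNA ligase, Plasmodium falciparum 3D7 (UniProt Q8IDJ8). Compounds at 30 µM. Direction is inferred from only a few compounds that gave an IC50; most scored high, so higher reads as stronger inhibition. Of about 69,000 compounds tested this way, about 49 (0.071%) reached 50% or more in at least one test.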
MtTrpRS: 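Tryptophan-tRNA ligase, Mycobacterium tuberculosis (UniProt P9WFT3). Enzyme assay of tryptophanyl-tRNA synthetase; the read-out is not stated. Tested at 10 µM. Higher most likely means stronger inhibition; the record gives no direction and few retests gave an IC50. About 65,000 compounds were tested under these conditions; 0.098% (about 64) showed 50% or more at least once.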
ClpP1P2: 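ClpP1P2, Mycobacterium tuberculosis (UniProt P9WPC5 and UniProt P9WPC3). Protease assay of ClpP1P2, read by the AMC dye that it sets free. Concentration: 50 µM. Direction is inferred from only a few compounds that gave an IC50; most scored high, so higher reads as stronger inhibition. Most other retested compounds had strongly negative values. Of about 69,000 compounds tested this way, about 10 (0.015%) reached 50% or more in at least one test.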

The filed quantity is “Percent Effect” (%).
How 0% and 100% were set is not recorded. Most values in the screen are low, and negative values occur.
This is an unselected part of the compounds tested.
A dash means the value is not listed here; it may have been measured.

Compound,PfKRS1,MtTrpRS,ClpP1P2
Cc1nc(-c2cc(C(=O)NCCN3CCOCC3)c3ccccn23)cs1,2.4,1.799,-92.31
C[C@H](NC(=O)N1CCN(c2ccc(Cl)cc2)CC1)C(=O)N1CCSCC1,-1.25,0.8497,-16.76
CCc1nc(C2CCCN2C(=O)CCc2cscn2)no1 (centres undefined),0.4525,1.834,-8.379
CC(C)c1csc(C2CCCN(C(=O)c3ncccn3)C2)n1 (centres undefined),1.323,-3.185,-5.847
CCOc1ccc(-c2nc(C(=O)NCC3CCOC3)cs2)cc1 (centres undefined),1.125,-0.2921,-18.46
c1coc(-c2noc(CN3CCc4cncnc4C3)n2)c1,0.8406,-1.04,-64.12
Cc1ccc(CN2CCc3c(nc4cc(C5CC5)nn4c3O)C2)s1,1.016,9.551,-6.549
CC(=O)Nc1ncc(S(=O)(=O)N2CCOCC2)s1,3.184,0.1282,-6.519
C=Cc1ccc(C(=O)N2CCCC(Nc3ccc(F)c(F)c3)C2)cc1 (centres undefined),-3.518,2.246,-12.37
COCC(C)N(C)C(=O)c1ccc2nncn2c1 (centres undefined),3.054,-1.475,6.253
O=C(c1ccc(C2CCNC2)cc1)N1CCC(N2CCC(O)CC2)CC1 (centres undefined),6.39,5.031,-0.1159
CC(C)(C)NC(=O)C1CSCN1S(=O)(=O)c1ccccc1F (centres undefined),4.611,-2.275,1.774
Cc1nn(C)c(C)c1-c1c(-c2ccccc2)ncn1[C@H](CO)C(=O)O,0.2826,-6.647,-7.72
O=C(c1ccoc1)N1CCOC2(COCCN(CC3CC3)C2)C1 (centres undefined),3.072,-,-1.003
O=C(NCc1cccs1)c1nc2c(o1)CN(C(=O)c1cccnc1)C2,0.2746,10.2,-8.06
Cc1nc(C)n(CC2CCCCN2Cc2cnc(C)s2)n1 (centres undefined),-1.556,1.363,-4.483
CC(C)(C)CNCC1(O)CCCN(Cc2ccccc2F)C1=O (centres undefined),-2.274,2.351,-3.647
CC(C)c1cc(NCC2(CO)CCC2)ncn1,0.2363,-6.049,-6.093
CSCCC1c2nc[nH]c2CCN1Cc1cncn1C (centres undefined),0.09799,-0.9226,-2.95
CC(C)(C(=O)NCc1ccccc1F)n1cc(Br)cn1,9.362,5.29,-5.093
CCCc1cc(N2CCCC2Cn2nc(C)nc2C)n2ncnc2n1 (centres undefined),0.2982,4.128,-4.062
COCCN1CCN(S(C)(=O)=O)Cc2cccnc21,2.219,-,-1.294
Cc1cnc(N2C[C@@H]3CN(Cc4ccco4)CCC[C@]3(C(=O)O)C2)nc1,6.338,-7.156,-5.292
CNC(=O)C1(c2cnccn2)CCCN1C(=O)c1cccnc1OC (centres undefined),3.404,-,12.19
O=C(c1ccn(-c2cccc(F)c2)n1)N1CCCC(n2cccn2)C1 (centres undefined),6.785,-0.07819,3.722
COC(=O)c1ccc(Cn2cnc(C#N)n2)cc1,3.802,2.147,1.448
Cc1ccc(-c2noc(CN3CC(n4cc(C)cn4)C3)n2)cc1,-0.7881,1.461,-3.017
CCn1cc(-c2n[nH]c(=O)n2-c2ccc3c(c2)OCO3)c(C)n1,1.614,-1.986,-9.147
CN(C)CCOc1ccc(CNC(=O)c2cccc(Cl)c2Cl)cc1,3.58,14.34,-0.171
Cc1nnc(NC(=O)CN(C)C2CCCN(c3cccnn3)C2)s1 (centres undefined),-1.492,-2.715,-33.85
Cc1ncc(CNC(=O)Cc2ccc(Cl)cc2)c(C2CCCN2C)n1 (centres undefined),6.981,-2.258,3.296
Cc1csc(N2CCN(Cc3ccn(C)c(=O)c3)CC2)n1,2.159,-3.95,-2.975
COc1ccc(N(C)C(=O)c2cccc(S(C)(=O)=O)c2)cn1,1.809,-4.288,7.471
Cc1cccc(N2CCc3ncnc(C4CC4)c3CC2)n1,3.279,-6.727,-0.2328
COc1ccc(CC(=O)NCC(O)c2sccc2C)cc1OC (centres undefined),-0.8049,-0.4944,-2.192
COCC(c1ccccn1)N(C)C(=O)c1cc(-c2ccc(O)cc2)n[nH]1 (centres undefined),0.9543,3.604,10.31
O=c1cc(CN2CCC(CCc3ccc(O)cc3)CC2)[nH]c(=O)[nH]1,5.916,-5.011,7.747
Cc1nn(C)c(N(C)C)c1CNCc1cccnc1N1CCOCC1,2.604,-0.53,7.536
Cc1ccc(C(=O)N2CCc3nc4c(C)csc4c(=O)n3CC2)cn1,3.826,-,1.586
COc1ccccc1CC1CCCN(CC(=O)N2CCOCC2)C1 (centres undefined),7.47,0.07819,-1.453
COC(=O)c1cccc2nc([C@H]3CCN(Cc4ccccc4F)C3)oc12,3.864,-0.6865,-2.787
CC(C)CCOCCNC(=O)Nc1cc(C(F)(F)F)c[nH]c1=O,-2.666,-1.263,4.381
CCCN(C)C(=O)c1cc(S(=O)(=O)NCC)ccc1C,0.4679,-0.7936,-8.075
COCC(=O)N1CC[C@@H]2O[C@@H](COCc3csc(C)n3)CC[C@@H]21,7.836,1.657,16.24

Some entries from above, unchanged:

CC(C)CCOCCNC(=O)Nc1cc(C(F)(F)F)c[nH]c1=O gave PfKRS1: -2.666%; MtTrpRS: -1.263%; ClpP1P2: 4.381%.
CCCN(C)C(=O)c1cc(S(=O)(=O)NCC)ccc1C gave PfKRS1: 0.4679%; MtTrpRS: -0.7936%; ClpP1P2: -8.075%.
CC(C)(C)CNCC1(O)CCCN(Cc2ccccc2F)C1=O (centres undefined) gave PfKRS1: -2.274%; MtTrpRS: 2.351%; ClpP1P2: -3.647%.